In patent US20180320217A1, “METHODS FOR SAMPLING AND MEASURING ORAL LAVAGE PROTEINS” (The Procter & Gamble Company, priority 2017, published 2018):

System: proteins in oral lavage
Test: Abundance of proteins in human oral lavage (SomaLogic), TABLE 1
Format: in vivo
Conditions: for Means (Original Scale) High bleeder BL / Means (Original Scale) High bleeder W4 / Means (Original Scale) Low bleeder BL: abundance in oral lavage; for Means (Original Scale) High bleeder BL: high bleeders (gingivitis); for Means (Original Scale) High bleeder BL / Means (Original Scale) Low bleeder BL: baseline; for Means (Original Scale) High bleeder W4 / Fold Change High bleeder W4 vs High bleeder BL: high bleeders; for Means (Original Scale) High bleeder W4: week 4 of investigative products; for Means (Original Scale) Low bleeder BL: low bleeders (healthy); for Fold Change High bleeder W4 vs High bleeder BL / Fold Change High bleeder BL vs Low bleeder BL: oral lavage
[1] = week 4 of treatment vs baseline
[2] = high vs low bleeders at baseline
[3] = high bleeders vs low bleeders at baseline
[4] = week 4 of investigative products vs baseline

Molecule	Means (Original Scale) High bleeder BL	Means (Original Scale) High bleeder W4	Means (Original Scale) Low bleeder BL	Fold Change High bleeder W4 vs High bleeder BL [1]	Fold Change High bleeder BL vs Low bleeder BL [2]	Fold Change High bleeder BL vs Low bleeder BL [3]	Fold Change High bleeder W4 vs High bleeder BL [4]
SLAM family member 7 (protein, UniProt Q9NQ25 23-335, looked up) SLAM family member 7: SGPVKELVGSVGGAVTFPLKSKVKQVDSIVWTFNTTPLVTIQPEGGTIIVTQNRNRERVDFPDGGYSLKLSKLKKNDSGIYYVGIYSSSLQQPSTQEYVLHVYEHLSKPKVTMGLQSNKNGTCVTNLTCCMEHGEEDVIYTWKALGQAANESHNGSILPISWRWGESDMTFICVARNPVSRNFSSPILARKLCEGAADDPDSSMVLLCLLLVPLLLSLFVLGLFLWFLKRERQEEYIEEKKRVDICRETPNICPHSGENTEYDTIPHTNRTILKEDPANTVYSTVEIPKKMENPHSLLTMPDTPRLFAYENVI	996	712	561	0.76	1.66		
Testican-1 (protein, UniProt Q08629 22-439, looked up) Testican-1: RHLDALAGGAGPNHGNFLDNDQWLSTVSQYDRDKYWNRFRDDDYFRNWNPNKPFDQALDPSKDPCLKVKCSPHKVCVTQDYQTALCVSRKHLLPRQKKGNVAQKHWVGPSNLVKCKPCPVAQSAMVCGSDGHSYTSKCKLEFHACSTGKSLATLCDGPCPCLPEPEPPKHKAERSACTDKELRNLASRLKDWFGALHEDANRVIKPTSSNTAQGRFDTSILPICKDSLGWMFNKLDMNYDLLLDPSEINAIYLDKYEPCIKPLFNSCDSFKDGKLSNNEWCYCFQKPGGLPCQNEMNRIQKLSKGKSLLGAFIPRCNEEGYYKATQCHGSTGQCWCVDKYGNELAGSRKQGAVSCEEEQETSGDFGSGGSVVLLDDLEYERELGPKDKEGKLRVHTRAVTEDDEDEDDDKEDEVGYIW	23537	13734	3587	0.61	6.23		
SPARC-related modular calcium-binding protein 1 (protein, UniProt Q9H4F8 27-434, looked up) SPARC-related modular …: HRTTGPRFLISDRDPQCNLHCSRTQPKPICASDGRSYESMCEYQRAKCRDPTLGVVHRGRCKDAGQSKCRLERAQALEQAKKPQEAVFVPECGEDGSFTQVQCHTYTGYCWCVTPDGKPISGSSVQNKTPVCSGSVTDKPLSQGNSGRKDDGSKPTPTMETQPVFDGDEITAPTLWIKHLVIKDSKLNNTNIRNSEKVYSCDQERQSALEEAQQNPREGIVIPECAPGGLYKPVQCHQSTGYCWCVLVDTGRPLPGTSTRYVMPSCESDARAKTTEADDPFKDRELPGCPEGKKMEFITSLLDALTTDMVQAINSAAPTGGGRFSEPDPSHTLEERVVHWYFSQLDSNSSNDINKREMKPFKRYVKKKAKPKKCARRFTDYCDLNKDKVISLPELKGCLGVSKEGRLV	25985	17574	8240	0.66	2.94		
Annexin A6 (protein, UniProt P08133 2-673, looked up) Annexin A6: AKPAQGAKYRGSIHDFPGFDPNQDAEALYTAMKGFGSDKEAILDIITSRSNRQRQEVCQSYKSLYGKDLIADLKYELTGKFERLIVGLMRPPAYCDAKEIKDAISGIGTDEKCLIEILASRTNEQMHQLVAAYKDAYERDLEADIIGDTSGHFQKMLVVLLQGTREEDDVVSEDLVQQDVQDLYEAGELKWGTDEAQFIYILGNRSKQHLRLVFDEYLKTTGKPIEASIRGELSGDFEKLMLAVVKCIRSTPEYFAERLFKAMKGLGTRDNTLIRIMVSRSELDMLDIREIFRTKYEKSLYSMIKNDTSGEYKKTLLKLSGGDDDAAGQFFPEAAQVAYQMWELSAVARVELKGTVRPANDFNPDADAKALRKAMKGLGTDEDTIIDIITHRSNVQRQQIRQTFKSHFGRDLMTDLKSEISGDLARLILGLMMPPAHYDAKQLKKAMEGAGTDEKALIEILATRTNAEIRAINEAYKEDYHKSLEDALSSDTSGHFRRILISLATGHREEGGENLDQAREDAQVAAEILEIADTPSGDKTSLETRFMTILCTRSYPHLRRVFQEFIKMTNYDVEHTIKKEMSGDVRDAFVAIVQSVKNKPLFFADKLYKSMKGAGTDEKTLTRIMVSRSEIDLLNIRREFIEKYDKSLHQAIEGDTSGDFLKALLALCGGED	7520	4233	2676			3.10	0.62
Superoxide dismutase [Mn], mitochondrial (protein, UniProt P04179 25-222, looked up) Superoxide dismutase [Mn], …: KHSLPDLPYDYGALEPHINAQIMQLHHSKHHAAYVNNLNVTEEKYQEALAKGDVTAQIALQPALKFNGGGHINHSIFWTNLSPNGGGEPKGELLEAIKRDFGSFDKFKEKLTAASVGVQGSGWGWLGFNKERGHLQIAACPNQDPLQGTTGLIPLLGIDVWEHAYYLQYKNVRPDYLKAIWNVINWENVTERYMACKK	25375	18580	14640	0.72	1.86		
Transcription factor IIIB 90 kDa subunit (protein, UniProt Q92994 1-677, looked up) Transcription factor IIIB 90 …: MTGRVCRGCGGTDIELDAARGDAVCTACGSVLEDNIIVSEVQFVESSGGGSSAVGQFVSLDGAGKTPTLGGGFHVNLGKESRAQTLQNGRRHIHHLGNQLQLNQHCLDTAFNFFKMAVSRHLTRGRKMAHVIAACLYLVCRTEGTPHMLLDLSDLLQVNVYVLGKTFLLLARELCINAPAIDPCLYIPRFAHLLEFGEKNHEVSMTALRLLQRMKRDWMHTGRRPSGLCGAALLVAARMHDFRRTVKEVISVVKVCESTLRKRLTEFEDTPTSQLTIDEFMKIDLEEECDPPSYTAGQRKLRMKQLEQVLSKKLEEVEGEISSYQDAIEIELENSRPKAKGGLASLAKDGSTEDTASSLCGEEDTEDEELEAAASHLNKDLYRELLGGAPGSSEAAGSPEWGGRPPALGSLLDPLPTAASLGISDSIRECISSQSSDPKDASGDGELDLSGIDDLEIDRYILNESEARVKAELWMRENAEYLREQREKEARIAKEKELGIYKEHKPKKSCKRREPIQASTAREAIEKMLEQKKISSKINYSVLRGLSSAGGGSPHREDAQPEHSASARKLSRRRTPASRSGADPVTSVGKRLRPLVSTQPAKKVATGEALLPSSPTLGAEPARPQAVLVESGPVSYHADEEADEEEPDEEDGEPCVSALQMMGSNDYGCDGDEDDGY	362	255	118	0.74	2.92		
Arylsulfatase A (protein, UniProt P15289 19-507, looked up) Arylsulfatase A: RPPNIVLIFADDLGYGDLGCYGHPSSTTPNLDQLAAGGLRFTDFYVPVSLCTPSRAALLTGRLPVRMGMYPGVLVPSSRGGLPLEEVTVAEVLAARGYLTGMAGKWHLGVGPEGAFLPPHQGFHRFLGIPYSHDQGPCQNLTCFPPATPCDGGCDQGLVPIPLLANLSVEAQPPWLPGLEARYMAFAHDLMADAQRQDRPFFLYYASHHTHYPQFSGQSFAERSGRGPFGDSLMELDAAVGTLMTAIGDLGLLEETLVIFTADNGPETMRMSRGGCSGLLRCGKGTTYEGGVREPALAFWPGHIAPGVTHELASSLDLLPTLAALAGAPLPNVTLDGFDLSPLLLGTGKSPRQSLFFYPSYPDEVRGVFAVRTGKYKAHFFTQGSAHSDTTADPACHASSSLTAHEPPLLYDLSKDPGENYNLLGGVAGATPEVLQALKQLQLLKAQLDAAVTFGPSQVARGEDPALQICCHPGCTPRPACCHCPDPHA	5748	3387	1559			4.58	0.58
T-lymphocyte surface antigen Ly-9 (protein, UniProt Q9HBG7 48-655, looked up) T-lymphocyte surface antigen …: KDSAPTVVSGILGGSVTLPLNISVDTEIENVIWIGPKNALAFARPKENVTIMVKSYLGRLDITKWSYSLCISNLTLNDAGSYKAQINQRNFEVTTEEEFTLFVYEQLQEPQVTMKSVKVSENFSCNITLMCSVKGAEKSVLYSWTPREPHASESNGGSILTVSRTPCDPDLPYICTAQNPVSQRSSLPVHVGQFCTDPGASRGGTTGETVVGVLGEPVTLPLALPACRDTEKVVWLFNTSIISKEREEAATADPLIKSRDPYKNRVWVSSQDCSLKISQLKIEDAGPYHAYVCSEASSVTSMTHVTLLIYRRLRKPKITWSLRHSEDGICRISLTCSVEDGGNTVMYTWTPLQKEAVVSQGESHLNVSWRSSENHPNLTCTASNPVSRSSHQFLSENICSGPERNTKLWIGLFLMVCLLCVGIFSWCIWKRKGRCSVPAFCSSQAEAPADTPEPTAGHTLYSVLSQGYEKLDTPLRPARQQPTPTSDSSSDSNLTTEEDEDRPEVHKPISGRYEVFDQVTQEGAGHDPAPEGQADYDPVTPYVTEVESVVGENTMYAQVFNLQGKTPVSQKEESSATIYCSIRKPQVVPPPQQNDLEIPESPTYENFT	1717	877	481	0.55	3.27		
